These are yes or no findings as the source states them, for the method shown. In cells and extracts the contact can be indirect. Some entries that bind do so weakly or less than the wild type.
Assays:
[1] = molecular target: endogenous Runx2 in MC3T3-E1 osteoblastic cells (UniProt Q08775); assay: co-immunoprecipitation of endogenous proteins, anti-Runx2 IP, anti-Shn3 blot
[2] = molecular target: endogenous Runx2 in MC3T3-E1 osteoblastic cells (UniProt Q08775); assay: co-immunoprecipitation of endogenous proteins in differentiated MC3T3-E1 cells, with or without TGF-β
[3] = molecular target: endogenous Runx2 in MC3T3-E1 osteoblastic cells (UniProt Q08775); assay: co-immunoprecipitation, with or without TGFβ

The chains behind the UniProt entries cited, without tags or fusion partners.
UniProt Q08775: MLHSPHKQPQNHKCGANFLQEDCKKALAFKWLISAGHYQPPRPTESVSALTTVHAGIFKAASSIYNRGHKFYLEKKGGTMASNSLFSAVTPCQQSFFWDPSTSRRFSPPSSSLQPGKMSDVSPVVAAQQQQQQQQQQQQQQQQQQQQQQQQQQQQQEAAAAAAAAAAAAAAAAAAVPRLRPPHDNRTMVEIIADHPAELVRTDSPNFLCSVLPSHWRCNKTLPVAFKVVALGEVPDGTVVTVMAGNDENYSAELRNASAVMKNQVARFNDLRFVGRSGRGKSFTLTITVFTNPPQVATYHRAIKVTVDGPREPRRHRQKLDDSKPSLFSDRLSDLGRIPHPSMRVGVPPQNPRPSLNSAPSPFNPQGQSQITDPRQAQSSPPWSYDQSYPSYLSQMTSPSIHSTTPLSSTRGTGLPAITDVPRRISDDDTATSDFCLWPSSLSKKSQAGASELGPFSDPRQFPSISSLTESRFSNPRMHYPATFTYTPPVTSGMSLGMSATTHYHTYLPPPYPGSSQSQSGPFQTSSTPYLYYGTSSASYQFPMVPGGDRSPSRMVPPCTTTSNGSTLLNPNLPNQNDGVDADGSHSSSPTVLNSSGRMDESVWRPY
UniProt A2A884: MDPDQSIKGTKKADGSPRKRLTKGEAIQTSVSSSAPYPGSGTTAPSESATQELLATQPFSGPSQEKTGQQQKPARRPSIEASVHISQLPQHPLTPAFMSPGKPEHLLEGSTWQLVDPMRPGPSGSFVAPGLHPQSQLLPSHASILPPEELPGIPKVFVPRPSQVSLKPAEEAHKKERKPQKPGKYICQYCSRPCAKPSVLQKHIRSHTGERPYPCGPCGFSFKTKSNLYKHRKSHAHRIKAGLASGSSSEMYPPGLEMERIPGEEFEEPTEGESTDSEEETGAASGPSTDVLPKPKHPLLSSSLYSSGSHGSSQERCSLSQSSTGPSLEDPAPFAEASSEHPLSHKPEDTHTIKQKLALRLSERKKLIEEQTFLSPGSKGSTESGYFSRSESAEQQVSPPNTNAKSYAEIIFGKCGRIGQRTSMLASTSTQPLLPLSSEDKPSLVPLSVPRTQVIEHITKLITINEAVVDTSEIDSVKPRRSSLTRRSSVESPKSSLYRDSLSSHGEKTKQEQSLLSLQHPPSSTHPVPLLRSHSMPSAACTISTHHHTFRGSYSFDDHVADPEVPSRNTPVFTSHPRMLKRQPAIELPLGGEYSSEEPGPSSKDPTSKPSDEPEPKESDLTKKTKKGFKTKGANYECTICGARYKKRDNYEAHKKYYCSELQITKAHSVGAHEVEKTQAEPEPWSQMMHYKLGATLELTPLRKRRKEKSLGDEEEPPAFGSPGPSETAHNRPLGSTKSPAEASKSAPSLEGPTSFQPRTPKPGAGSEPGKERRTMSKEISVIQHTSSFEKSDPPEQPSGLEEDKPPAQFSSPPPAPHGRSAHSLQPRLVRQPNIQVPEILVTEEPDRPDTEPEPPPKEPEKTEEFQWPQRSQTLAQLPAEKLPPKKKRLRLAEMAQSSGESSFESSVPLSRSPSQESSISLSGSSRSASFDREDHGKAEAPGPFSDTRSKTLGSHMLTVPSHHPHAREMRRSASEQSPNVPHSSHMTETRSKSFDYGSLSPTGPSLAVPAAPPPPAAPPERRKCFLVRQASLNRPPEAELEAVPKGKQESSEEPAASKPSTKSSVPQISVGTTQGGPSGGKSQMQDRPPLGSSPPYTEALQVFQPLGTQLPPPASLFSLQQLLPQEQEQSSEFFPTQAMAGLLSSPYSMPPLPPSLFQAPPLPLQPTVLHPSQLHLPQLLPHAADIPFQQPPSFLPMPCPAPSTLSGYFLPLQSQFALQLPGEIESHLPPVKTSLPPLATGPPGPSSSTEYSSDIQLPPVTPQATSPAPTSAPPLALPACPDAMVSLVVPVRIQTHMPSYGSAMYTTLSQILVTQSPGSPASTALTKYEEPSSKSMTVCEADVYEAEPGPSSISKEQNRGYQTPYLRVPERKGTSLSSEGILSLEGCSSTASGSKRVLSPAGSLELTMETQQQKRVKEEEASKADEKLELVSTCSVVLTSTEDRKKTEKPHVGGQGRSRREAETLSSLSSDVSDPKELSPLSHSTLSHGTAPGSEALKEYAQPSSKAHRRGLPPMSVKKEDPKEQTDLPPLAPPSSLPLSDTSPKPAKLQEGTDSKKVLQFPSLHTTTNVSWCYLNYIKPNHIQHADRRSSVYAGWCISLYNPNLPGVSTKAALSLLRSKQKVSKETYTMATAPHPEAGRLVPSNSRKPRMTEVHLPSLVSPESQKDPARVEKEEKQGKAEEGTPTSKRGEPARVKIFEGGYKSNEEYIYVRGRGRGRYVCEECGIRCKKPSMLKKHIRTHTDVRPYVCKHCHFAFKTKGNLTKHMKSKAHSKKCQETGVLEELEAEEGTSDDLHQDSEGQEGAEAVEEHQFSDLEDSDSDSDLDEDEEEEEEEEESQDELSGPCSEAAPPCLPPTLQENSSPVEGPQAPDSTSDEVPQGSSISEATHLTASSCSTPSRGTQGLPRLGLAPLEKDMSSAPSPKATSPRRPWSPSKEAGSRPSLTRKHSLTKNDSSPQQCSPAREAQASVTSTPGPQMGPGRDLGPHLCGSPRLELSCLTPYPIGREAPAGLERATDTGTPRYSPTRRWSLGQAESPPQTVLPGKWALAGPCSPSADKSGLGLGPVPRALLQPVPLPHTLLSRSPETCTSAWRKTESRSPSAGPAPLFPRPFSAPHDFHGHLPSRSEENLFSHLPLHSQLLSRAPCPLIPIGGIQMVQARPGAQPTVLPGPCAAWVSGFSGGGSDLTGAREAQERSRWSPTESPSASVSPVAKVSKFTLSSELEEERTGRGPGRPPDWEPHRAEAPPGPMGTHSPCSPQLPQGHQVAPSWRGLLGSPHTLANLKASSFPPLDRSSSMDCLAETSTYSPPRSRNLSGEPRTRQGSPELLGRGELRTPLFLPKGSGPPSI

binding [1]: binds
binding [2]: binds
binding [3]: binds
Substance: endogenous Shn3 in MC3T3-E1 osteoblastic cells (from UniProt A2A884 1-2348)

— US20090318338A1
